Among the data in the supplement of paper PMC10735217 are TEAD-luciferase reporter activity values, retold here.

The structures appear in SMILES notation. Where a name gives a salt, the structure may show the parent alone. Some of the results follow. Single values are uncertain here, since repeats match poorly.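 Human kidney-derived cells stably carry a construct in which eight TEAD-binding elements drive luciferase, measured by luminescence in a drug-repurposing library screen. A hit is any compound whose signal exceeds the plate mean by more than five robust Z scores.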

This test relates to HEK293A TEAD-LUC reporter. Nature of the test: TEAD-luciferase reporter activity (YAP activation), robust Z score vs plate; higher = stronger YAP/TEAD activation. To be noted: 24 h.

Regarding `CNc1ccc2oc(C[C@H]3O[C@@]4(CC[C@H]3C)O[C@H]([C@H](C)C(=O)c3ccc[nH]3)[C@H](C)C[C@H]4C)nc2c1C(=O)O` [Calcimycin], the TEAD-luciferase reporter activity was inactive: 0.778 (compound concentration: 200 nM), inactive: -0.0275 (compound concentration: 2 uM) and inactive: -0.917 (compound concentration: 10 uM).

On to `Cl[C@H]1[C@H](Cl)[C@@H](Cl)[C@@H](Cl)[C@H](Cl)[C@H]1Cl`, for which the TEAD-luciferase reporter activity (compound concentration: 200 nM) is inactive: -1.81, the TEAD-luciferase reporter activity (compound concentration: 2 uM) was inactive: 0.159 and the TEAD-luciferase reporter activity (compound concentration: 10 uM) is inactive: -0.753.

On to `O=c1[nH]c2cc(Cl)ccc2n1C1CCN(CCCC(c2ccc(F)cc2)c2ccc(F)cc2)CC1`, for which the TEAD-luciferase reporter activity runs as follows: (compound concentration: 200 nM) inactive: -0.564; (compound concentration: 2 uM) inactive: 0.333; (compound concentration: 10 uM) inactive: 0.0989.

In the case of `CC[C@@H]1/C=C/C=C/C[C@H](C)[C@@H](O)[C@](C)(O)C(=O)[C@H](C)[C@@H](O)[C@H](C)C(=O)[C@H](C)[C@@H](O)[C@H](C)/C=C/C(=O)O[C@H]2[C@@H](C)[C@@H](CC1)O[C@@]1(CC[C@@H](C)[C@@H](C[C@H](C)O)O1)[C@@H]2C`, the TEAD-luciferase reporter activity (compound concentration: 200 nM) is inactive: -2.86, the TEAD-luciferase reporter activity (compound concentration: 2 uM) was inactive: -1.99 and the TEAD-luciferase reporter activity (compound concentration: 10 uM) is inactive: 0.995.

With `FC(F)(F)c1cccc(C2=CCN(CCc3ccc4ccccc4c3)CC2)c1` [Xaliproden hydrochloride], the TEAD-luciferase reporter activity runs as follows: (compound concentration: 200 nM) inactive: -2.86; (compound concentration: 2 uM) inactive: -0.67; (compound concentration: 10 uM) inactive: 2.51.

For the molecule `CCN(CC)C(=O)c1ccc([C@H](c2cccc(N)c2)N2CCN(Cc3ccc(F)cc3)CC2)cc1`, the TEAD-luciferase reporter activity is inactive: -0.542 (compound concentration: 200 nM) and inactive: 0.916 (compound concentration: 10 uM).

`CCC(CO)(C(=O)OC1CC2CCC(C1)[N+]2(C)C)c1ccccc1` (stereo not drawn) [Troventol]: the TEAD-luciferase reporter activity (compound concentration: 200 nM) is inactive: 0.625, the TEAD-luciferase reporter activity (compound concentration: 2 uM) was inactive: 0.0818 and the TEAD-luciferase reporter activity (compound concentration: 10 uM) was inactive: -1.52.

For `CC(C)C[C@H](NC(=O)[C@H](CO)NC(=O)[C@@H](N)Cc1ccc(O)cc1)C(=O)O`, the TEAD-luciferase reporter activity reads like this: (compound concentration: 200 nM) inactive: -0.905; (compound concentration: 2 uM) inactive: -1.1; (compound concentration: 10 uM) inactive: 0.298.

As for `NC(=O)OC(Cn1ncnn1)c1ccccc1Cl` (stereo not drawn), the TEAD-luciferase reporter activity reads like this: (compound concentration: 200 nM) inactive: -0.956; (compound concentration: 2 uM) inactive: -0.121; (compound concentration: 10 uM) inactive: -0.304.

Regarding `CCN[C@H](C)Cc1cccc(C(F)(F)F)c1` [Levofenfluramine], the TEAD-luciferase reporter activity (compound concentration: 200 nM) is inactive: -2.65, the TEAD-luciferase reporter activity (compound concentration: 2 uM) was inactive: 1.46 and the TEAD-luciferase reporter activity (compound concentration: 10 uM) was inactive: -0.281.

`CCCCCCC(C)(C)c1cc(OC)c([C@H]2C=C(CO)[C@H]3C[C@@H]2C3(C)C)c(OC)c1`: the TEAD-luciferase reporter activity is inactive: -1.25 (compound concentration: 200 nM) and inactive: 0.037 (compound concentration: 10 uM).

For the molecule `C=CC[C@]1(O)CC[C@H]2[C@@H]3CCC4=CC(=O)CCC4=C3C=C[C@@]21C` [Altrenogest], the TEAD-luciferase reporter activity (compound concentration: 200 nM) is inactive: 0.296, the TEAD-luciferase reporter activity (compound concentration: 2 uM) was inactive: -0.85 and the TEAD-luciferase reporter activity (compound concentration: 10 uM) is inactive: -0.178.

Regarding `COc1cc2cc(c1Cl)N(C)C(=O)C[C@H](OC(=O)C(C)C)[C@]1(C)O[C@H]1[C@H](C)[C@@H]1C[C@@](O)(NC(=O)O1)[C@H](OC)/C=C/C=C(\C)C2` [Ansamitocin P3], the TEAD-luciferase reporter activity reads like this: (compound concentration: 200 nM) active: 6.17; (compound concentration: 2 uM) inactive: 2.5; (compound concentration: 10 uM) active: 6.04.

Take `CN(C)CCc1cc2ccccc2[nH]1`: the TEAD-luciferase reporter activity is, setting by setting: (compound concentration: 200 nM) inactive: 2.87; (compound concentration: 2 uM) inactive: 0.497; (compound concentration: 10 uM) inactive: 0.845.

With `CCC(C(N)=O)N1CC(C=C(F)F)CC1=O` (stereo not drawn), the TEAD-luciferase reporter activity was inactive: -1.08 (compound concentration: 200 nM), inactive: 2.01 (compound concentration: 2 uM) and inactive: -0.686 (compound concentration: 10 uM).

Take `CN1C(=O)CC(=O)N(c2ccccc2)c2cc(C(F)(F)F)ccc21` [Triflubazam]: the TEAD-luciferase reporter activity (compound concentration: 200 nM) is inactive: -2.51, the TEAD-luciferase reporter activity (compound concentration: 2 uM) is inactive: -0.957 and the TEAD-luciferase reporter activity (compound concentration: 10 uM) is inactive: 0.421.

Regarding `N=C(N)c1ccc(-c2csc(N(CCC(=O)O)C3CCN(CC(=O)O)CC3)n2)cc1`, the TEAD-luciferase reporter activity (compound concentration: 200 nM) was inactive: -0.974, the TEAD-luciferase reporter activity (compound concentration: 2 uM) is inactive: -0.477 and the TEAD-luciferase reporter activity (compound concentration: 10 uM) is inactive: 0.303.

Consider `N[C@@H](Cc1ccc(O)cc1)C(=O)NCC(=O)NCC(=O)O`, for which the TEAD-luciferase reporter activity was inactive: -0.883 (compound concentration: 200 nM), inactive: -1.66 (compound concentration: 2 uM) and inactive: 0.813 (compound concentration: 10 uM).

For the molecule `CC(CC(N)CC(=O)O)CC(C)(C)C` (stereo not drawn), the TEAD-luciferase reporter activity runs as follows: (compound concentration: 200 nM) inactive: 0.691; (compound concentration: 2 uM) inactive: 0.918; (compound concentration: 10 uM) inactive: -0.372.

Consider `CCC[N+]1(C)C2CCC1CC(OC1c3ccccc3CSc3ccccc31)C2` (stereo not drawn) [tipetropium], for which the TEAD-luciferase reporter activity (compound concentration: 200 nM) is inactive: -1.42, the TEAD-luciferase reporter activity (compound concentration: 2 uM) is inactive: 1.46 and the TEAD-luciferase reporter activity (compound concentration: 10 uM) was inactive: 0.12.

Turning to `CC(C)CC(N(C)C)C1(c2ccc(Cl)cc2)CCC1` (stereo not drawn), the TEAD-luciferase reporter activity (compound concentration: 2 uM) is inactive: -0.173.

As for `CC(C)CC(N(C)C)C1(c2ccc(Cl)cc2)CCC1` (stereo not drawn) [Sibutramine hydrochloride], the TEAD-luciferase reporter activity reads like this: (compound concentration: 200 nM) inactive: 3.47; (compound concentration: 10 uM) inactive: -0.489.

With `NCC(O)c1cccc(O)c1` (stereo not drawn), the TEAD-luciferase reporter activity is, setting by setting: (compound concentration: 200 nM) inactive: 1.81; (compound concentration: 2 uM) inactive: 0.458; (compound concentration: 10 uM) inactive: 2.81.

Consider `O=P(NCCCl)(NCCCl)O[C@@H]1O[C@H](CO)[C@@H](O)[C@H](O)[C@H]1O`, for which the TEAD-luciferase reporter activity (compound concentration: 200 nM) was inactive: 1.96, the TEAD-luciferase reporter activity (compound concentration: 2 uM) is inactive: 0.0686 and the TEAD-luciferase reporter activity (compound concentration: 10 uM) was inactive: -0.177.

`CC(=O)N1N=C(c2ccc(N)cc2)c2cc3c(cc2C[C@H]1C)OCO3` [talampanel]: the TEAD-luciferase reporter activity was inactive: 1.88 (compound concentration: 200 nM), inactive: 4.15 (compound concentration: 2 uM) and inactive: -1.7 (compound concentration: 10 uM).

With `CC(C)[C@]12O[C@H]1[C@@H]1O[C@]13[C@]1(O[C@H]1C[C@H]1C4=C(CC[C@@]13C)C(=O)OC4)[C@@H]2OCOP(=O)([O-])[O-]` [Minnelide], the TEAD-luciferase reporter activity by setting is: (compound concentration: 200 nM) inactive: -0.43; (compound concentration: 2 uM) inactive: -2.45; (compound concentration: 10 uM) inactive: -2.2.
